Results reported in paper PMC8733394.
These are yes or no findings as the source states them, for the method shown. In cells and extracts the contact can be indirect. Here binding means that the protein was enriched with, or labelled near, the bait; the list need not be complete. For part of these data: A no says only that the protein was not detected with the bait. Sequences can lack the tags named with a protein.

How the values were obtained:
Test in all cases: affinity purification with mass spectrometry; 100 ug GST fusion protein on Glutathione-Sepharose 4B in Buffer L (50 mM Tris-HCl pH 8.0, 250 mM NaCl, 1 mM EDTA); total protein of 2-week-old Col-0 seedlings added, overnight at 4 C, washed 4 x 5 min; bound proteins seen by 10% SDS-PAGE, gel piece cut out, trypsin digest, LC-MS; only the target purified
[1] = target: T1, GST-tagged TSN1 fragment tu1 I-1 (1-380 amino acids), SN1 and SN2 domains (Arabidopsis thaliana) (UniProt Q8VZG7)
T1 sequence: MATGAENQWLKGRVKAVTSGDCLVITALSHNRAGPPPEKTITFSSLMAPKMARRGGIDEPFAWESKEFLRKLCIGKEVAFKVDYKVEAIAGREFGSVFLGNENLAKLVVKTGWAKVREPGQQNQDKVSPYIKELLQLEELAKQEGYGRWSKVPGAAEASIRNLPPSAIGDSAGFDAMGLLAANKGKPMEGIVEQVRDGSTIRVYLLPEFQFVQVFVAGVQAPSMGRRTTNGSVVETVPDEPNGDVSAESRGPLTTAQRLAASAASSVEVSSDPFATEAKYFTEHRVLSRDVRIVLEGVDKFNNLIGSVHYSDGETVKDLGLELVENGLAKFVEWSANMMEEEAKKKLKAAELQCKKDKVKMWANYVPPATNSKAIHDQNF

[2] = target: T2, GST-tagged TSN1 fragment tu1 I-2 (381-720 amino acids), SN3 and SN4 domains (Arabidopsis thaliana) (UniProt Q8VZG7)
T2 sequence: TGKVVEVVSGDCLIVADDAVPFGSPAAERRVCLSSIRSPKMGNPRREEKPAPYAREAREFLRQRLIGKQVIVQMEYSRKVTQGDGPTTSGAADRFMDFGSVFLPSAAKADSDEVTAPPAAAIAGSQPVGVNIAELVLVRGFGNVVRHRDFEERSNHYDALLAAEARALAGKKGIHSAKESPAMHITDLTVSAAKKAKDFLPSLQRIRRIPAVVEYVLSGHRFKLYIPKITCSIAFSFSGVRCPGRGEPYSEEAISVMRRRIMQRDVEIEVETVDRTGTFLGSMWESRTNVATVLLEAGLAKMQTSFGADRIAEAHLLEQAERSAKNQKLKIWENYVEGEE

[3] = target: T3, GST-tagged TSN1 fragment tu1 II (721-970 amino acids), C-terminal TSN (Tudor-SN) domain (Arabidopsis thaliana) (UniProt Q8VZG7)
T3 sequence: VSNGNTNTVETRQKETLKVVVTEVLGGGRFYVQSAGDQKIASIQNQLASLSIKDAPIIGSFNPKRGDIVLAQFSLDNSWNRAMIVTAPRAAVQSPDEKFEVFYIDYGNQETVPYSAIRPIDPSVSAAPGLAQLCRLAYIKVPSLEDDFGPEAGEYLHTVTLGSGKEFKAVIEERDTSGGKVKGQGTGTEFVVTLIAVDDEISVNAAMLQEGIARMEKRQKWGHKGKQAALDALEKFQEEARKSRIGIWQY

- binding [1]: no binding
- binding [2]: no binding
- binding [3]: binds
B1: RH31, DEAD-box RNA helicase (At5g63630), endogenous (protein, UniProt Q9FFQ1 1-716)
chain: MPLNFPLRIRFFAHSLSGTHLSYNTSSSVPLLFRIFSSGLNHFEFGSRINFSTRPNRDQPEFERRIRDGGEIRASKSLIEDEEELSNWVSGFRTGSSRGILKSDDEDEEDRSRGRNQEKRGIRNQVDSFRNKRYGGDRERGFNSRIQGKSSEASFRGRKETSFSRDREDEKGLRKREDLRLEDESSDEDVKSLVMGDIGDLLSEDDEEEDQDYDFLKKKAVSAFGFDKENVIEADKTRNANDSYLTKTRFDHYPLSPLSLKAIKDAGYETMTVVQEATLPIILKGKDVLAKAKTGTGKTVAFLLPSIEVVVKSPPTSPDNKRPPILALVICPTRELANQAATEANTLLKYHPSIGVQVVIGGTRLGLEQKRMQTNPCQILVATPGRLKDHIENTPGFATRLKGVKVLVLDEADHLLDMGFRKDIERIISAVPKERQTFLFSATVPEEVRQICLVALRRDHEFVNCVHEGTIETHQQVRQMHMIASLDRHFSLLYTLLREHIMGNVDYKVIVFCTTAMVTKLVADLLGELNLNVREIHSRKPQSYRTRVSNEFRKSKGLILVTSDVSARGVDYPDVTLVLQVGLPKDREQYIHRLGRTGRKGKEGEGILLLAPWEEYFLSSLKDLPITKSPLPSIDPETVKKVQKALCHVEMRNKEAAYQAWLGYYNSQKMIGRDKDRLVELANEFSRSMGLDNPPAIPKLILGKMGLKNVPGLRAK
